# PubChem BioAssay AID2685 (National Center for Advancing Translational Sciences (NCATS), 2010)
# Some of the results follow. These are further read-outs of the screen, such as a control signal, another cell line or another target. No call is given for them. Compounds called inactive in the main read-out are mostly missing here. Potencies come from curve fits of mixed quality, noted in brackets.
# Experiment: qHTS Assay for Lipid Storage Modulators in Drosophila S3 Cells;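 on cell number change: cells counted by Cell Tracker Red CMTPX staining in the red channel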
# Conditions: BODIPY lipid droplet fluorescence, 18-24 h; for cell number change: measured here: cell count max response, cells fed with added oleic acid
# Summary of the method: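 Drosophila S3 cells got compounds at several concentrations plus oleic acid (400 uM solution). Laser-scanning cytometry with 488 nm excitation read lipid droplets at 500-530 nm and cells at 575-640 nm. Percent activity was relative to 20 uM Triacsin C.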
# [1] = measured here: cell number channel AC50, cells fed with added oleic acid
# [2] = measured here: lipid fluorescence (Fed channel) AC50, cells fed with added oleic acid
Structure (SMILES),cell number change,AC50 [1],AC50 [2]
Cc1nn(-c2ccccc2)c(C)c1C(=O)Nc1ccc(N2CCOCC2)cc1,-48.3%,"29.1 µM [falling, single point]","29.1 µM [falling, partial curve, poor fit]"
Cn1c(SCC(=O)Nc2sccc2C#N)nnc1-c1ccccc1,8.83%,"0.146 µM [rising, partial curve, poor fit]",
CC1(C)CC(=O)C=C(Nc2ccc(Br)cc2F)C1,-5.84%,,
COc1ccc(C(=O)N(c2ccccc2)C2C=CS(=O)(=O)C2)cc1 (stereo unspecified),3.45%,,"0.651 µM [falling, single point]"
COc1cccc(NC(=O)c2ccncc2)c1,-8.31%,,"0.82 µM [falling, full curve, poor fit]"
COc1ccc(OC)c(NC(=O)CCCN2C(=O)C3C4C=CC(C4)C3C2=O)c1 (stereo unspecified),-8.79%,"4.11 µM [falling, single point]",
NC(N)=N/N=C/c1ccc(OS(=O)(=O)c2ccccc2)cc1,-2.9%,,
Cc1cccc(NC(=O)C2CCCN(S(=O)(=O)c3cccc4nsnc34)C2)n1 (stereo unspecified),1.38%,,
CC(=O)c1sc(NC(=O)c2ccc(C)c(C)c2)nc1C,36.8%,,
S=C(NCc1ccc(Cl)cc1)NCc1ccco1,,"1.84 µM [rising, partial curve, poor fit]",
CNc1nc(-c2c(C)[nH]c3ccc(OC)cc23)cs1,17.9%,,"0.411 µM [rising, full curve]"
O=C(NC(=S)N1CCCCC1c1cccnc1)c1ccc(Br)cc1 (stereo unspecified),17.4%,,"11.6 µM [rising, partial curve]"
O=C(O)C1C2C=CC(O2)C1C(=O)NCCc1cccc(Cl)c1 (stereo unspecified),,"3.66 µM [rising, single point]","16.4 µM [rising, partial curve]"
COc1ccc(CCNC(=O)CSc2nc3ccsc3c(=O)n2CC2CCC(C(=O)O)CC2)cc1OC (stereo unspecified),-15.3%,"4.11 µM [falling, partial curve, poor fit]",
CCCCC(=O)Nc1ccc(NC(=O)c2ccccc2OC)cn1,17.4%,"0.517 µM [rising, partial curve, poor fit]","6.51 µM [rising, single point]"
COc1ccc(NC(=O)c2ccsc2NC(C)=O)cc1,,,"29.1 µM [falling, single point]"
COc1cc(C(=O)Nc2cc(S(C)(=O)=O)ccc2Cl)ccc1OCC(=O)N1CCOCC1,-0.556%,"2.59 µM [falling, single point]","0.00651 µM [falling, full curve, poor fit]"
Cc1cc2c(c(=O)o1)C(c1cccs1)C(C#N)=C(N)O2 (stereo unspecified),16.6%,"0.366 µM [falling, single point]","0.411 µM [falling, partial curve, poor fit]"
NC(=O)C1=C[C@@H](c2ccccc2)C[C@@H](OCc2ccc(CO)cc2)O1,10.3%,,"1.03 µM [rising, full curve, poor fit]"
COC(=O)c1ccc(C)c(NC(=O)CN(c2ccccc2)S(=O)(=O)N(C)C)c1,-0.792%,,
Cc1ccc(S(=O)(=O)n2nc(-c3ccco3)nc2SCc2ccccc2)cc1,,,"1.16 µM [falling, full curve]"

# Another view of 2 compounds above:
Structure (SMILES)	cell number change	AC50 [1]	AC50 [2]
NC(N)=N/N=C/c1ccc(OS(=O)(=O)c2ccccc2)cc1	-2.9%		
Cc1cccc(NC(=O)C2CCCN(S(=O)(=O)c3cccc4nsnc34)C2)n1 (stereo unspecified)	1.38%		

# Later entries.

Structure (SMILES),cell number change,AC50 [1],AC50 [2]
O=C(c1ccc(CN2CCc3ccccc3C2)cc1)N1CCN(c2ccccc2)CC1,-7.7%,,"6.51 µM [rising, single point]"
Cc1ccccc1Nc1nc(Cl)c(C=O)s1,-83.7%,"29.1 µM [falling, single point]",
COc1cc(C(=O)NCc2ccncc2)cc(OC)c1OC,12.5%,,"9.2 µM [rising, single point]"
COc1ccccc1CNC(=O)c1ccc2ccccc2n1,-18.1%,,
COc1cc(C(=O)NC2CCCCC2)ccc1OCc1ccc(Cl)cc1Cl,,,"20.6 µM [rising, partial curve]"
Cc1ccc(S(=O)(=O)NC(Cc2ccccc2)C(=O)O)cc1 (stereo unspecified),-6.58%,,
CCN(CCCNC(=O)C1CCC(=O)N1Cc1ccc(F)cc1)c1cccc(C)c1 (stereo unspecified),-11.4%,,
O=C1CN(C(=O)c2ccccc2F)C(c2ccccc2)c2cc(F)ccc2N1 (stereo unspecified),3.6%,,
CCCCN(CC)C(=O)CN1C(=O)c2ccccc2C1=O,-6.95%,,"6.51 µM [rising, single point]"
Cc1cccc(N2CCN(C(=O)CC(NC(=O)c3ccccc3Cl)c3ccccc3)CC2)c1C (stereo unspecified),,,"29.1 µM [falling, single point]"
CCS(=O)(=O)N1Cc2ccccc2CC1C(=O)Nc1cccc(OC)c1 (stereo unspecified),,,"6.51 µM [rising, partial curve, poor fit]"
CNc1ccc(Br)cc(C(=O)/C=C/c2cc(OC)ccc2OC)c1=O,-29.5%,,"25.9 µM [falling, partial curve, poor fit]"
Cc1ccc(S(=O)(=O)N2CCCCC2C(=O)O)s1 (stereo unspecified),,"1.3 µM [rising, full curve]","1.03 µM [rising, full curve]"
COC(=O)C(C(C)C)N1CCc2c(C)nc3c(C#N)cnn3c21 (stereo unspecified),4.31%,"0.00517 µM [falling, full curve, poor fit]","0.00517 µM [falling, full curve, poor fit]"
CCCOc1ccc(C(=O)Nc2ccc(Cl)cn2)cc1,-13.8%,"0.92 µM [falling, full curve, poor fit]","0.92 µM [falling, full curve]"
COCCN(Cc1ccccc1)C(=O)Cc1ccc(OC)c(S(=O)(=O)N2CCOCC2)c1,,,"20.6 µM [rising, single point]"
CCOC(=O)CNC(=O)C12CC3CC(CC(C3)C1)C2,123%,,
Cc1noc(NS(=O)(=O)c2ccc(NC(=O)C(F)(F)F)cc2)c1C,20.1%,,"29.1 µM [rising, partial curve]"
C=C(C)C1CCC2(C(=O)O)CCC3(C)C(CCC4C5(C)C(C=O)C(O)C(C)(C)C5CCC43C)C12 (stereo unspecified),-37.1%,"13 µM [falling, partial curve]","29.1 µM [falling, single point]"
CCN1C=C(Cc2ccc(OC)cc2)C2=C(C1)C(c1ccc(OC)cc1)C(C#N)=C(N)O2 (stereo unspecified),-0.197%,,
C(C#CCCCCCCCCC[n+]1ccccc1)#CCCCCCCCCC[n+]1ccccc1,,,"29.1 µM [falling, single point]"

# 4 neighbouring entries from above, quoted:
Structure (SMILES),cell number change,AC50 [1],AC50 [2]
COc1cc(C(=O)NC2CCCCC2)ccc1OCc1ccc(Cl)cc1Cl,,,"20.6 µM [rising, partial curve]"
Cc1ccc(S(=O)(=O)NC(Cc2ccccc2)C(=O)O)cc1 (stereo unspecified),-6.58%,,
CCN(CCCNC(=O)C1CCC(=O)N1Cc1ccc(F)cc1)c1cccc(C)c1 (stereo unspecified),-11.4%,,
O=C1CN(C(=O)c2ccccc2F)C(c2ccccc2)c2cc(F)ccc2N1 (stereo unspecified),3.6%,,

# Continued.

Structure (SMILES),cell number change,AC50 [1],AC50 [2]
O=[N+]([O-])c1ccc2[nH]c(O)c(N=Nc3ccc(F)cc3)c2c1,5.63%,"2.59 µM [rising, partial curve]",
CC1(C)CC(=O)C2=C(C1)N(c1ccc(F)cc1)C(=O)CC2c1ccsc1 (stereo unspecified),1.05%,,"29.1 µM [rising, single point]"
CC(=O)c1ccc(N2CCC(c3cc(-c4ccc(Cl)cc4)n[nH]3)CC2)c([N+](=O)[O-])c1,-16.4%,,"29.1 µM [falling, partial curve, poor fit]"
C=CCNC(=O)NC(=O)COC(=O)/C(C#N)=C/c1ccc(OC)cc1,10.3%,,"0.259 µM [falling, full curve]"
Cc1ccc(C(=O)N2CCN(Cc3ccc4c(c3)OCO4)CC2)cc1C,30.1%,"18.4 µM [rising, partial curve, poor fit]",
Cc1sc2nc(C3CC3)nc(N3CCN(C(=O)c4ccccc4F)CC3)c2c1C,28.2%,,
O=C(c1cc(-c2ccc(Br)cc2)nc2ccccc12)N1CCC1,26%,,"11.6 µM [rising, partial curve]"
CCCCN(C(=O)c1ccc(COc2ccccc2)o1)c1c(N)n(CC(C)C)c(=O)[nH]c1=O,13.8%,,"0.116 µM [rising, full curve, poor fit]"
O=C(Nc1ccccc1)c1sc2cc(C(F)(F)F)cnc2c1-c1cccs1,53.7%,"2.59 µM [rising, full curve]","13 µM [rising, partial curve]"
COc1cc(CN(C)c2ccc(S(=O)(=O)N3CCCC3)cn2)ccc1OC(F)F,36.9%,"14.6 µM [rising, single point]",
OC(COCc1ccc(Cl)cc1)CN1CCCCC1 (stereo unspecified),20.1%,,"29.1 µM [falling, single point]"
Cc1ccc(C(=O)NCC(=O)N/N=C/c2sccc2C)cc1[N+](=O)[O-],1.69%,,"0.291 µM [rising, partial curve]"
C=CCn1c(O)c(N=NC(=O)C(O)c2ccccc2)c2ccccc21 (stereo unspecified),29.3%,,"0.259 µM [rising, full curve, poor fit]"
COc1ccc(NC(=O)CN2C(=O)NC3(CC(C)CC(C)(C)C3)C2=O)cc1S(=O)(=O)N1CCCCC1 (stereo unspecified),-1.04%,,"13 µM [rising, partial curve, poor fit]"
O=C(NC1CCCC1)C(c1ccccc1F)N(C(=O)c1csnn1)C1CC1 (stereo unspecified),19.4%,,
FC(F)(F)c1cccc(Cc2noc(CN(Cc3ccccn3)CC3CCCO3)n2)c1 (stereo unspecified),14.2%,,"20.6 µM [rising, partial curve]"
COc1cccc(CC(=O)OCC(=O)N(C)CC(=O)Nc2ccc(Cl)c(C(F)(F)F)c2)c1,-100%,"29.1 µM [falling, single point]",
Cc1cc(N2CCCC2=O)cc(C)c1S(=O)(=O)Nc1c(C)nn(C)c1C,21.7%,"6.51 µM [rising, single point]","0.731 µM [falling, single point]"
O=C(Cn1cnc(S(=O)(=O)N2CCCC2)c1)Nc1ccc(OC(F)(F)F)cc1,41.6%,"14.6 µM [rising, partial curve, poor fit]","7.31 µM [rising, partial curve]"
